Data published in article PMC3088709, “Phosphorylation of the Yeast γ-Tubulin Tub4 Regulates Microtubule Function” (PLoS ONE, 2011).

Molecular target: T1, Spc97 fused to the tandem affinity purification (TAP) tag (S. cerevisiae) (UniProt P38863)
T1 sequence: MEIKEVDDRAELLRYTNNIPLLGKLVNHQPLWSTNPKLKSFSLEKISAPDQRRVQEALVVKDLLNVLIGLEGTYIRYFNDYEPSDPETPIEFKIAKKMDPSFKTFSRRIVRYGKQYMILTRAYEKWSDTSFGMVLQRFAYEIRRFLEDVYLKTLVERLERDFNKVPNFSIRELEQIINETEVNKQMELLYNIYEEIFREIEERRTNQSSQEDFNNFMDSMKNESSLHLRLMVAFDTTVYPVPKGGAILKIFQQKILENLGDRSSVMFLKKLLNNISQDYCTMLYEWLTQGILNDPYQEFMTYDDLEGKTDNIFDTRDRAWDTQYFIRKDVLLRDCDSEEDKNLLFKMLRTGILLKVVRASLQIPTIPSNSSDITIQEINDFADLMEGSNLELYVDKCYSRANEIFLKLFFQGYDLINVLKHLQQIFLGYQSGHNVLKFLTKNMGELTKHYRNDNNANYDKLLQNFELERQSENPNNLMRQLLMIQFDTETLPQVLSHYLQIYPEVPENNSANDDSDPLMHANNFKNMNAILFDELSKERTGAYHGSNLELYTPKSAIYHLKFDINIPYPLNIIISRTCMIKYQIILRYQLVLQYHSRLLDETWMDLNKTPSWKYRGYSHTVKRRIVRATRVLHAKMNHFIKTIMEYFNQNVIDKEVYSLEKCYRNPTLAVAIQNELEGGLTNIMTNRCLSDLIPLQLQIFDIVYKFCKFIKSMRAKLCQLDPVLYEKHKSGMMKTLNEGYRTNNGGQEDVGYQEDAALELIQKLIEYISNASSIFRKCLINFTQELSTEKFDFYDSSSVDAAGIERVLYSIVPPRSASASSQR
Test: affinity purification with mass spectrometry; Spc97-TAP purified on an IgG-Sepharose column from lysate of yeast after Gal1-induced co-expression of SPC97-TAP, SPC98 and TUB4; lysis buffer 20 mM Tris/HCl pH 7.5, 0.1 M NaCl, 0.1% NP-40; wash with 0.6 M potassium acetate; SDS-PAGE with Coomassie Blue and mass spectrometry

B1: Spc72 (protein, UniProt P39723 1-622)
chain: MVRRWIPSGRHLRNNDNTGDDDDSEFTNSMDSGMSIPSLRDSMTTRSSHNDPIKPALMNDSNKVKNLEKELTNAKIKIQVLYEYIRRIPNKDGNAPSLGNDTDFRNSIIEGLNLEINKLKQDLKAKEVEYQDTLQFVQENLENSESIVNTINHLLSFILTHFNEQDENAHLLDKEERETLEETLELSSDYVLEKMDTLSKFIIQFLQDFLHSKSRAESKQDKEEFLSLAQSSPAGSQLESRDSPSSKEENTDGGYQNDEIHDSNNHIDTENVMANSTSLPISAVESRFEKTLDTQLEIVIENLHKEYDQFINSIRLKFEKSQKLEKIIASKLNEQSHLLDSLELEENSSSVIEKQDHLISQLKEKIESQSVLINNLEKLKEDIIKMKQNEKVLTKELETQTKINKLKENNWDSYINDLEKQINDLQIDKSEEFHVIQNQLDKLDLENYQLKNQLNTLDNQKLILSQYESNFIKFNQNLLLHLDSIFNILQKILQESSIAQFDRKMKSIKSVPNALKNLNLIQPKLESLYTFIETALESIINSYISSLISMETPEQPHQQGNELTATPNKELTLRIEELQRRWISERERRKLDANASEARIKALEQENESLRSKLFNLSINNP
B1 was tested, and the binding was “binds”.

No constants are given. Whether binding was seen depends on the method and setting. In cells and extracts the contact can be indirect. Here binding means that the protein was enriched with, or labelled near, the bait; the list need not be complete. Where a sequence is shown, tags or fusion partners need not be part of it.
